The assay addresses T1, INDUCER OF CBF EXPRESSION 1 (ICE1), BiFC construct (UniProt Q9LSE2).
T1 sequence: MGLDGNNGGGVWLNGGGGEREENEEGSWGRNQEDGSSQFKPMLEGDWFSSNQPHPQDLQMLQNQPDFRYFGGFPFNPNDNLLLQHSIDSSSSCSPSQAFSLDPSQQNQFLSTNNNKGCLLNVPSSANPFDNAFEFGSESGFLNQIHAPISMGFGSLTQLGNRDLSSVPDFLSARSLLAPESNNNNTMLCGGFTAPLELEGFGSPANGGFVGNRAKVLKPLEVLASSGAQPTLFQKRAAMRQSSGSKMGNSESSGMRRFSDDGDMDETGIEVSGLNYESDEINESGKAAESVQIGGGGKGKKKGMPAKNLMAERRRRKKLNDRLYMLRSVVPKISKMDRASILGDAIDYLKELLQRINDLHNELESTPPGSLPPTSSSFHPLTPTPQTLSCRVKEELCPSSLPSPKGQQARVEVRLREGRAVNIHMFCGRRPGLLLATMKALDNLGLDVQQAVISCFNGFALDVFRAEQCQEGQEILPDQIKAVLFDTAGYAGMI
As to the kind of experiment: split reporter.

These are yes or no findings as the source states them, for the method shown. In cells and extracts the contact can be indirect. Binding calls can cover weak binding; strength is not graded here.

Among the data in publication doi:10.1101/2025.08.31.673341 are binding values, retold here.

Regarding “U-box-deleted PUB19 (PUB19dU) fused to the C-terminal part of YFP (YFPc) (Arabidopsis) (domain or fragment)”, the binding result was “binds”.
